Source: patent publication US20250019454A1
No constants are given. Whether binding was seen depends on the method and setting. Binding calls can cover weak binding; strength is not graded here.

B1: BC-1B6-IgG1 (antibody, V domains shown)
VH: QVQLVESGGGVVQPGRSLRLSCAASGFTFSNFGMHWVRQAPGKGLEWVAVIWYEGSDKYYADSVKGRFTISRDNSKNTLYLQMNSLRAEDTAVYYCARDSSWGFLLYGMDVWGQGTTVTVSS
VL: DVVMTQSPLSLPVTLGQPASISCRSSRSLEYSDGNTYLNWFQQRPGQSPRRLIYKVSNRDSGVPDRFSGSGSGTAFTLKISGVEAEDVGVYYCMQGTHWPPTFGGGTKVEIK
B2: BC-1C3-IgG1 (antibody, V domains shown)
VH: QVQLVESGGGVVHPGKSLRLSCAASGFTFNIYGMHWVRQAPGKGLEWVALISYDGNDKYFADSVKGRFTISRDNSKNTLYLQMNSLRAEDTAVYYCAKAVDTAVVTFFDYWGQGTLVTVSS
VL: EIVMTQSPVTLSVSPGERATLSCRASQSVSSNLAWYQQKPGQAPRLLIYSASTRATGIPARFSGSGSGTEFTLTISSLQSEDLAVYYCQQYSNWPFTFGPGTKVDIK
B3: BC-1F4-IgG1 (antibody, V domains shown)
VH: QVQLQQSGPGLVKPSQTLSLTCAISGDSVSSDSSAWNWIRQSPSRGLEWLGRTYYRSKWYNDYTVSVKSRITINPDTSKNQFSLQLNSVTPEDTAVYYCAREDGVGGTKDYFDYWGQGTLVTVSS
VL: DIQMTQSPSSLSASVGDRVTITCQASQDISNYLNWYQQKPGKAPKLLIYDASNLETGVPSRFSGSGSGTDFTFTINSLQPEDFATYFCQQYDNLPITFGQGTRLEIK

Target: His-tagged monkey (Crab-eating monkey) TNFR2 (Sino Biological, Cat #: 90102-C08H) (monkey (Crab-eating monkey))
Assay: SPR Biacore 8K

binding, binds:
B1
B2
B3
